Drawing on PMC11655532, this text covers binding for one molecule.

Sequences of proteins named here, by UniProt entry; tags and fusion partners are left off.
UniProt Q9UBL6: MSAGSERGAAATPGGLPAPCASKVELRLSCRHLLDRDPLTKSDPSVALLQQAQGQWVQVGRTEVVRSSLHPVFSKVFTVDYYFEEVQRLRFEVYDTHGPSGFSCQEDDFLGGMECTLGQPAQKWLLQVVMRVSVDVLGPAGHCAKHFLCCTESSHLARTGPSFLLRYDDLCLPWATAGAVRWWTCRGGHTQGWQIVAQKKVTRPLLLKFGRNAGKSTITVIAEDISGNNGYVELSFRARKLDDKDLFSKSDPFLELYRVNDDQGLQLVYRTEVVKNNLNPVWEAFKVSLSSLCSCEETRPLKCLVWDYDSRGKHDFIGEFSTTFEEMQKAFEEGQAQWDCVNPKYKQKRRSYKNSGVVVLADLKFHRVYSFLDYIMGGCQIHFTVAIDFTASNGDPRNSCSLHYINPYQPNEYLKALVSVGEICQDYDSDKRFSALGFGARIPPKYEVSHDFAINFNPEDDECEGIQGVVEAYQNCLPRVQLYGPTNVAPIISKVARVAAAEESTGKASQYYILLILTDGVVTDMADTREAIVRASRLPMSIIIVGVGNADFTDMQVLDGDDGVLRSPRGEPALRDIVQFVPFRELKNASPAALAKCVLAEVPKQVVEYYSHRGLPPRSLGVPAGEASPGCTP

Results are given in words; binding and its absence hold for the method and conditions named. In cells and extracts the contact can be indirect. A yes stands for co-enrichment or nearness to the bait. Other partners may have been found.

This assay concerns the target CPNE7 (copine7) (human) (UniProt Q9UBL6). The experiment in a line: affinity purification with mass spectrometry; IP from SW480 cell lysate (RIPA buffer with PMSF), 2 ug antibody overnight at 4°C, Protein A/G beads; SDS-PAGE, silver staining, differential bands analysed by mass spectrometry.

B1: NONO (p54/nrb) (protein, UniProt Q15233 1-471)
chain: MQSNKTFNLEKQNHTPRKHHQHHHQQQHHQQQQQQPPPPPIPANGQQASSQNEGLTIDLKNFRKPGEKTFTQRSRLFVGNLPPDITEEEMRKLFEKYGKAGEVFIHKDKGFGFIRLETRTLAEIAKVELDNMPLRGKQLRVRFACHSASLTVRNLPQYVSNELLEEAFSVFGQVERAVVIVDDRGRPSGKGIVEFSGKPAARKALDRCSEGSFLLTTFPRPVTVEPMDQLDDEEGLPEKLVIKNQQFHKEREQPPRFAQPGSFEYEYAMRWKALIEMEKQQQDQVDRNIKEAREKLEMEMEAARHEHQVMLMRQDLMRRQEELRRMEELHNQEVQKRKQLELRQEEERRRREEEMRRQQEEMMRRQQEGFKGTFPDAREQEIRMGQMAMGGAMGINNRGAMPPAPVPAGTPAPPGPATMMPDGTLGLTPPTTERFGQAATMEGIGAIGGTPPAFNRAAPGAEFAPNKRRRY
With B1, the binding result is “binds”.
